# Source: article PMC7819943, “Rice protein-binding microarrays: a tool to detect cis-acting elements near promoter regions in rice”
# Protein sequences, listed by entry. Tags and fused reporters are not part of them.
# UniProt Q0JBA9, entry or part of it: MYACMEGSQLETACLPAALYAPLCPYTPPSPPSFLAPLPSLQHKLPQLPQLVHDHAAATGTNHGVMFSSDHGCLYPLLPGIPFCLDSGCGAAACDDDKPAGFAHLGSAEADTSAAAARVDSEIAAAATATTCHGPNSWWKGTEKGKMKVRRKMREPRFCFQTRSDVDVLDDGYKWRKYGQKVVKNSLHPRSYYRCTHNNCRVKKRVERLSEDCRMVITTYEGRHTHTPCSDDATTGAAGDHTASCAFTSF
# Some of the results follow.
# Molecular target: OsWRKY34 (Oryza sativa, UniProt Q0JBA9 1-250)
# Test: protein-binding microarray (RPBM); PBS, 2% BSA, 51.3 ng/ul salmon testes DNA, 50 uM zinc acetate, 200 nM TF, 25 C, 1 h; high values mean tight binding
# Settings: protein: recombinant; tags: N-terminal polyhistidine and DsRed monomer fusion (pET32a); label: CyDye5-dUTP incorporated in the synthesized complementary strand; 3' TTTTT single-stranded linker to array surface; dsDNA, one strand shown
# Procedure, shortened: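 Per-feature fluorescence intensity (arbitrary units), read on an Axon 4000B scanner, is the binding signal. Transcription factors carrying an N-terminal polyhistidine tag and DsRed fusion were expressed in E. coli BL21-CodonPlus and purified on Ni–NTA. A custom Agilent array, made double-stranded by primer extension with Cy5-dUTP and blocked with 2% BSA, was incubated with 200 nM protein in PBS, 2% BSA, salmon testes DNA and 50 µM zinc acetate at 25 °C for 1 h and then washed.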
row,Sequence,binding signal
1,TTTGCTTCTCTGAAAATTGTCTTGTTCTCTCCAGGTTCCACGGAGTCACCTAGTGCAG,8310 fluorescence intensity (a.u.)
2,GCTTTGATCATAGATGGTTTGCTGCGATTTGTAGGGTAGCCGGAGTCACCTAGTGCAG,8140 fluorescence intensity (a.u.)
3,ATTTTATATGATTGCTCTTTTTTAATTTTTTTTTTGCTATCGGAGTCACCTAGTGCAG,9080 fluorescence intensity (a.u.)
4,CCTATAAGAGTTCAAATCCCATCCGATATTGCCTTTTTTTCGGAGTCACCTAGTGCAG,8510 fluorescence intensity (a.u.)
5,CTGCCTTCCGTGCGCGGTCCTTCGGCTCTACTTGGATGCTCGGAGTCACCTAGTGCAG,9890 fluorescence intensity (a.u.)
6,AAGTCTCTAGTCATGATACTCCCGGTCCCATGTCACCGACCGGAGTCACCTAGTGCAG,8100 fluorescence intensity (a.u.)
7,GAGGTCTACTGTTATTGGGGATTCTTTTTGGGTGGGGTGGCGGAGTCACCTAGTGCAG,31300 fluorescence intensity (a.u.)
8,ATTCACTTGATTTGGTTGCTGCTTTTTCTCCATTCTCGTTCGGAGTCACCTAGTGCAG,9090 fluorescence intensity (a.u.)
9,ACGACCACGTCGCCGTCGCGCAACCCATCCATCCATCCATCGGAGTCACCTAGTGCAG,8280 fluorescence intensity (a.u.)
10,TTTTCCTTTTTTTTCTTTTTTCCATATATATATATATATACGGAGTCACCTAGTGCAG,8610 fluorescence intensity (a.u.)
11,ATTCAGATCCACCCGCGTCTTCTCTTCTCCCCTCTCGTCCCGGAGTCACCTAGTGCAG,8190 fluorescence intensity (a.u.)
12,CGCTGCTGCTGACTTGTGGGCTCCCACGGCCTCTCCTGGTCGGAGTCACCTAGTGCAG,8110 fluorescence intensity (a.u.)
13,GGAGTATATAAATATATATATTAAATACAACTCTAGACTACGGAGTCACCTAGTGCAG,26700 fluorescence intensity (a.u.)
14,TTTGGTGGTGTGCAAGTGGAGTGGTTTATAAAATTATGTCCGGAGTCACCTAGTGCAG,8980 fluorescence intensity (a.u.)
15,CATTTGCAACGGAGCTCCTTACTCTACCTCGACTTGCAACCGGAGTCACCTAGTGCAG,9590 ± 186 fluorescence intensity (a.u.)
16,CATTTGCATTTTGTAGTAGTTTTTGTTTTTATTTTGGCCCCGGAGTCACCTAGTGCAG,9760 fluorescence intensity (a.u.)
17,TCTGAATTGGGCCCTGTCGCGAAGCCTGCCACCTGAATTGCGGAGTCACCTAGTGCAG,8400 fluorescence intensity (a.u.)
18,CCCTTCCCCTCCTCGCGTCGCCTCTCCACTTCGCCTCTATCGGAGTCACCTAGTGCAG,9090 fluorescence intensity (a.u.)
19,TGGGCTGGGGCTGCTGGGAGGGGTCGGGCCTTCCTTGCACCGGAGTCACCTAGTGCAG,13300 fluorescence intensity (a.u.)
20,CTTATGGTCATCCTTTATCTCCATTAGGGAAGTCATCCCCCGGAGTCACCTAGTGCAG,8540 fluorescence intensity (a.u.)
21,TGGTGGTAGTGTGTGTTGGTGTCATAAATACTAAATAAGACGGAGTCACCTAGTGCAG,8060 fluorescence intensity (a.u.)

row,Sequence,binding signal
1,TGATTTGATTTGGTTTTTTTCTTTGCTTGATTACTTCCTTCGGAGTCACCTAGTGCAG,12300 fluorescence intensity (a.u.)
2,CCTCCTCCTGCCGTCGTCCCCGCTGCTGCGCGCGACGCTCCGGAGTCACCTAGTGCAG,8300 fluorescence intensity (a.u.)
3,TGCTTTTTTCTTTTTATTATATCTATCGGATTTTAATACACGGAGTCACCTAGTGCAG,8410 fluorescence intensity (a.u.)
4,TGGGGTTTTCAGCTTGCCAATGCTGCATTATCTTCTTTTTCGGAGTCACCTAGTGCAG,17200 fluorescence intensity (a.u.)
5,TGCAAACTTGCATACCTGTATGTTCTTTGTTTATTTTTTCCGGAGTCACCTAGTGCAG,8480 fluorescence intensity (a.u.)
6,GTGACCGTTTTGAGCCGTCCGTGCAGGCGTGCATTCACCACGGAGTCACCTAGTGCAG,8200 fluorescence intensity (a.u.)
7,CCCCACTTGCCAGTATTGAAATGAGCTGCGCACCTACCCTCGGAGTCACCTAGTGCAG,8360 fluorescence intensity (a.u.)
8,CCCCATCATCCGAGCAATCTCGGCCGTCCAATCTCCCCACCGGAGTCACCTAGTGCAG,8450 fluorescence intensity (a.u.)
9,AAACACCACATTCATTTACAAATATTTCCCTCGACTTCCTCGGAGTCACCTAGTGCAG,8250 fluorescence intensity (a.u.)
10,GGTCTACTTATATATTGTGGAGGTGGTTCTTATAGCTATCCGGAGTCACCTAGTGCAG,8220 fluorescence intensity (a.u.)
11,TTCTTTCTTTCTTTCTTCTTTCCCTGTTCTGTCTTTCTTCCGGAGTCACCTAGTGCAG,13100 fluorescence intensity (a.u.)
12,ACATGCCCTTGAATCGAATCAATATCTTTGTGTCTGTCTGCGGAGTCACCTAGTGCAG,11600 fluorescence intensity (a.u.)
13,ACCGTTCGTCCGTTCCGCTCTTCCGCTCCAGTCTCCACCGCGGAGTCACCTAGTGCAG,12300 fluorescence intensity (a.u.)
14,TAACAAATAATGATACAGTCTTCTTATTTTGTCTCTTTTCCGGAGTCACCTAGTGCAG,8040 fluorescence intensity (a.u.)
15,CCGTCCCGACCCATCTCCTTCACCCGCCGCCGCCGCCTGCCGGAGTCACCTAGTGCAG,12400 fluorescence intensity (a.u.)
16,ACTTATCTATGGGCCAACATTGTTCTCCTCCTAATGTGCTCGGAGTCACCTAGTGCAG,8320 fluorescence intensity (a.u.)
17,GTTTTAAAATGGTTGACACCGTTGACTTTTTAGCACGTGTCGGAGTCACCTAGTGCAG,30100 fluorescence intensity (a.u.)
18,GATCCGCTCGCCCCGCCGCGCCGCCGACCATCGCCATCGCCGGAGTCACCTAGTGCAG,8410 fluorescence intensity (a.u.)
19,TGATACTCTAAAGATTTTTCCTGAGCTGTACGTTCTGTTTCGGAGTCACCTAGTGCAG,8230 fluorescence intensity (a.u.)
20,GGAGTTTTTTTTTTCATTTTCTTTTTTACCGTTTGTAATTCGGAGTCACCTAGTGCAG,12500 fluorescence intensity (a.u.)
21,TCCCTGTAACCGTACTGCACATCACGTCATCCATTTAAGACGGAGTCACCTAGTGCAG,9390 fluorescence intensity (a.u.)

# No new results follow: an excerpt of the list.
row,Sequence,binding signal
13,ACCGTTCGTCCGTTCCGCTCTTCCGCTCCAGTCTCCACCGCGGAGTCACCTAGTGCAG,12300 fluorescence intensity (a.u.)
14,TAACAAATAATGATACAGTCTTCTTATTTTGTCTCTTTTCCGGAGTCACCTAGTGCAG,8040 fluorescence intensity (a.u.)
15,CCGTCCCGACCCATCTCCTTCACCCGCCGCCGCCGCCTGCCGGAGTCACCTAGTGCAG,12400 fluorescence intensity (a.u.)
